± gives the standard deviation of the averaged measurements. Differences between knockout arms are mostly noise.
Test system: MDA-MB-231
Experiment: relative cell number vs DMSO control (72 h) (% of DMSO); higher = less growth inhibition (more cells)
Method: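 QMAP-Seq: a pool of 5 breast cancer cell lines (ZR-75-1, SKBR3, HCC-38, MDA-MB-231, BT-20), each carrying 12 doxycycline-inducible Cas9 sgRNA perturbations (11 knockouts plus non-targeting sgNT), was treated with compounds for 72 h at four 10-fold doses (10 nM-10 uM or 1 nM-1 uM range). Barcodes were amplified and sequenced, and cell number was interpolated from 293T spike-in standard curves. The result is expressed as % of the median of DMSO wells. Two biological replicates.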

Cc1ccc(C(=O)Cn2c3c(sc2=N)CCCC3)cc1 [PifithrinAlpha]
Settings | relative cell number
sgRNA knockout: sgATF3, 10 nM | 89.6 ± 2.1
sgRNA knockout: sgATF3, 100 nM | 88.5 ± 6.3
sgRNA knockout: sgATF3, 1000 nM | 89.5 ± 11
sgRNA knockout: sgATF3, 10000 nM | 73.4 ± 14
sgRNA knockout: sgATF4, 10 nM | 78.6 ± 34
sgRNA knockout: sgATF4, 100 nM | 81.6 ± 6.7
sgRNA knockout: sgATF4, 1000 nM | 113 ± 28
sgRNA knockout: sgATF4, 10000 nM | 37.8 ± 2.9
sgRNA knockout: sgATF6, 10 nM | 110 ± 4.8
sgRNA knockout: sgATF6, 100 nM | 76 ± 24
sgRNA knockout: sgATF6, 1000 nM | 79.4 ± 27
sgRNA knockout: sgATF6, 10000 nM | 69.2 ± 14
sgRNA knockout: sgATG7, 10 nM | 71.1 ± 15
sgRNA knockout: sgATG7, 100 nM | 88 ± 15
sgRNA knockout: sgATG7, 1000 nM | 88.2 ± 2.4
sgRNA knockout: sgATG7, 10000 nM | 60.6 ± 4.6
sgRNA knockout: sgERN1, 10 nM | 85.5 ± 2.5
sgRNA knockout: sgERN1, 100 nM | 69.5 ± 2
sgRNA knockout: sgERN1, 1000 nM | 117 ± 31
sgRNA knockout: sgERN1, 10000 nM | 67.5 ± 3.1
sgRNA knockout: sgHSF1, 10 nM | 100 ± 24
sgRNA knockout: sgHSF1, 100 nM | 91.3 ± 3.1
sgRNA knockout: sgHSF1, 1000 nM | 81.3 ± 3.4
sgRNA knockout: sgHSF1, 10000 nM | 80.4 ± 15
sgRNA knockout: sgHSF2, 10 nM | 95.1 ± 27
sgRNA knockout: sgHSF2, 100 nM | 78 ± 5.4
sgRNA knockout: sgHSF2, 1000 nM | 88.3 ± 13
sgRNA knockout: sgHSF2, 10000 nM | 84.2 ± 14
sgRNA knockout: sgKEAP1, 10 nM | 96.2 ± 23
sgRNA knockout: sgKEAP1, 100 nM | 79.7 ± 4.3
sgRNA knockout: sgKEAP1, 1000 nM | 98.2 ± 9.6
sgRNA knockout: sgKEAP1, 10000 nM | 61 ± 29
sgRNA knockout: sgNFE2L2, 10 nM | 103 ± 18
sgRNA knockout: sgNFE2L2, 100 nM | 80 ± 18
sgRNA knockout: sgNFE2L2, 1000 nM | 97.72 ± 0.55
sgRNA knockout: sgNFE2L2, 10000 nM | 58.4 ± 13
sgRNA knockout: sgSLC35F2, 10 nM | 79.1 ± 1.8
sgRNA knockout: sgSLC35F2, 100 nM | 68.4 ± 17
sgRNA knockout: sgSLC35F2, 1000 nM | 87.2 ± 18
sgRNA knockout: sgSLC35F2, 10000 nM | 59.9 ± 15
sgRNA knockout: sgXBP1, 10 nM | 89.8 ± 12
sgRNA knockout: sgXBP1, 100 nM | 95.5 ± 24
sgRNA knockout: sgXBP1, 1000 nM | 89.2 ± 2.7
sgRNA knockout: sgXBP1, 10000 nM | 65 ± 4

CCc1c2c(nc3ccc(O)cc13)-c1cc3c(c(=O)n1C2)COC(=O)[C@]3(O)CC [SN38]
Settings | relative cell number
sgRNA knockout: sgATF3, 1 nM | 74.9 ± 3.1
sgRNA knockout: sgATF3, 10 nM | 25.2 ± 5.3
sgRNA knockout: sgATF3, 100 nM | 23.7 ± 6.1
sgRNA knockout: sgATF3, 1000 nM | 25.2 ± 2.5
sgRNA knockout: sgATF4, 1 nM | 56.1 ± 7.8
sgRNA knockout: sgATF4, 10 nM | 34.1 ± 0.93
sgRNA knockout: sgATF4, 100 nM | 22.2 ± 1.2
sgRNA knockout: sgATF4, 1000 nM | 25.71 ± 0.05
sgRNA knockout: sgATF6, 1 nM | 92.8 ± 23
sgRNA knockout: sgATF6, 10 nM | 45.4 ± 3.9
sgRNA knockout: sgATF6, 100 nM | 23.8 ± 2.5
sgRNA knockout: sgATF6, 1000 nM | 21 ± 5.3
sgRNA knockout: sgATG7, 1 nM | 82.1 ± 4.8
sgRNA knockout: sgATG7, 10 nM | 32.6 ± 7.9
sgRNA knockout: sgATG7, 100 nM | 21 ± 4.4
sgRNA knockout: sgATG7, 1000 nM | 17.4 ± 2.6
sgRNA knockout: sgERN1, 1 nM | 83.4 ± 7.5
sgRNA knockout: sgERN1, 10 nM | 29.6 ± 2.3
sgRNA knockout: sgERN1, 100 nM | 27.3 ± 0.52
sgRNA knockout: sgERN1, 1000 nM | 19.6 ± 3
sgRNA knockout: sgHSF1, 1 nM | 80 ± 2.3
sgRNA knockout: sgHSF1, 10 nM | 27.8 ± 3.1
sgRNA knockout: sgHSF1, 100 nM | 19.6 ± 1.9
sgRNA knockout: sgHSF1, 1000 nM | 17.4 ± 5.8
sgRNA knockout: sgHSF2, 1 nM | 89.2 ± 5.7
sgRNA knockout: sgHSF2, 10 nM | 32.5 ± 0.76
sgRNA knockout: sgHSF2, 100 nM | 21.5 ± 4.8
sgRNA knockout: sgHSF2, 1000 nM | 19.1 ± 13
sgRNA knockout: sgKEAP1, 1 nM | 85.3 ± 5.5
sgRNA knockout: sgKEAP1, 10 nM | 43.4 ± 2.8
sgRNA knockout: sgKEAP1, 100 nM | 16.6 ± 2.3
sgRNA knockout: sgKEAP1, 1000 nM | 18.5 ± 6.7
sgRNA knockout: sgNFE2L2, 1 nM | 77.3 ± 4
sgRNA knockout: sgNFE2L2, 10 nM | 25.1 ± 3.6
sgRNA knockout: sgNFE2L2, 100 nM | 26.8 ± 8.9
sgRNA knockout: sgNFE2L2, 1000 nM | 20.9 ± 0.7
sgRNA knockout: sgSLC35F2, 1 nM | 80.3 ± 10
sgRNA knockout: sgSLC35F2, 10 nM | 34.3 ± 5.7
sgRNA knockout: sgSLC35F2, 100 nM | 20.1 ± 8
sgRNA knockout: sgSLC35F2, 1000 nM | 19.4 ± 4.5
sgRNA knockout: sgXBP1, 1 nM | 91.95 ± 0.12
sgRNA knockout: sgXBP1, 10 nM | 33.9 ± 6.7
sgRNA knockout: sgXBP1, 100 nM | 19.9 ± 2.6
sgRNA knockout: sgXBP1, 1000 nM | 20.7 ± 7.8

COc1nc(N)nc2c1ncn2[C@@H]1O[C@H](CO)[C@@H](O)[C@@H]1O [Nelarabine]
Settings | relative cell number
sgRNA knockout: sgATF3, 10 nM | 119 ± 22
sgRNA knockout: sgATF3, 100 nM | 99.1 ± 31
sgRNA knockout: sgATF3, 1000 nM | 89.1 ± 4.5
sgRNA knockout: sgATF3, 10000 nM | 98 ± 4.6
sgRNA knockout: sgATF4, 10 nM | 102 ± 14
sgRNA knockout: sgATF4, 100 nM | 102 ± 5.9
sgRNA knockout: sgATF4, 1000 nM | 109 ± 4
sgRNA knockout: sgATF4, 10000 nM | 87.4 ± 9.3
sgRNA knockout: sgATF6, 10 nM | 83.1 ± 23
sgRNA knockout: sgATF6, 100 nM | 92.8 ± 17
sgRNA knockout: sgATF6, 1000 nM | 118 ± 7
sgRNA knockout: sgATF6, 10000 nM | 88.1 ± 7.4
sgRNA knockout: sgATG7, 10 nM | 87.1 ± 5.7
sgRNA knockout: sgATG7, 100 nM | 108 ± 12
sgRNA knockout: sgATG7, 1000 nM | 99.4 ± 8.9
sgRNA knockout: sgATG7, 10000 nM | 86 ± 4.3
sgRNA knockout: sgERN1, 10 nM | 117 ± 20
sgRNA knockout: sgERN1, 100 nM | 97 ± 22
sgRNA knockout: sgERN1, 1000 nM | 92.3 ± 1.2
sgRNA knockout: sgERN1, 10000 nM | 66.5 ± 10
sgRNA knockout: sgHSF1, 10 nM | 85.7 ± 11
sgRNA knockout: sgHSF1, 100 nM | 84.2 ± 20
sgRNA knockout: sgHSF1, 1000 nM | 95.4 ± 4.7
sgRNA knockout: sgHSF1, 10000 nM | 84.6 ± 13
sgRNA knockout: sgHSF2, 10 nM | 95 ± 6.8
sgRNA knockout: sgHSF2, 100 nM | 103 ± 11
sgRNA knockout: sgHSF2, 1000 nM | 83.1 ± 37
sgRNA knockout: sgHSF2, 10000 nM | 87.2 ± 9.2
sgRNA knockout: sgKEAP1, 10 nM | 87.33 ± 0.31
sgRNA knockout: sgKEAP1, 100 nM | 69.9 ± 14
sgRNA knockout: sgKEAP1, 1000 nM | 101 ± 17
sgRNA knockout: sgKEAP1, 10000 nM | 74.8 ± 1.4
sgRNA knockout: sgNFE2L2, 10 nM | 103 ± 31
sgRNA knockout: sgNFE2L2, 100 nM | 103 ± 17
sgRNA knockout: sgNFE2L2, 1000 nM | 108 ± 2.3
sgRNA knockout: sgNFE2L2, 10000 nM | 116 ± 11
sgRNA knockout: sgSLC35F2, 10 nM | 106 ± 26
sgRNA knockout: sgSLC35F2, 100 nM | 100 ± 53
sgRNA knockout: sgSLC35F2, 1000 nM | 89 ± 3.4
sgRNA knockout: sgSLC35F2, 10000 nM | 89.3 ± 18
sgRNA knockout: sgXBP1, 10 nM | 94.7 ± 12
sgRNA knockout: sgXBP1, 100 nM | 96 ± 20
sgRNA knockout: sgXBP1, 1000 nM | 85 ± 15
sgRNA knockout: sgXBP1, 10000 nM | 78.2 ± 3.5

Source: the supplement of paper PMC7661543
